Measured values taken from the supplement of paper PMC12823440, “Inhibitors supercharge kinase turnover through native proteolytic circuits” (Nature, 2025).
Counter-ions that a name gives are not always drawn. The list shows a part of the results. Hit calls seldom repeat between salt and free forms of one compound.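 In K562 cells expressing nanoluciferase-fused kinases, luminescence was recorded at 4 h intervals between 2 and 18 h, normalized as percent of control with DMSO at 100% and a positive control at 0%. A significant (2 sigma) signal drop marks a time point as decreased. The authors' rule for a hit is not shown and takes in more than the number of time points.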

The chains behind the UniProt entries cited, without tags or fusion partners. Where a name states a change or a piece, a line headed by the entry shows the natural chain unless it says otherwise.
UniProt P48729: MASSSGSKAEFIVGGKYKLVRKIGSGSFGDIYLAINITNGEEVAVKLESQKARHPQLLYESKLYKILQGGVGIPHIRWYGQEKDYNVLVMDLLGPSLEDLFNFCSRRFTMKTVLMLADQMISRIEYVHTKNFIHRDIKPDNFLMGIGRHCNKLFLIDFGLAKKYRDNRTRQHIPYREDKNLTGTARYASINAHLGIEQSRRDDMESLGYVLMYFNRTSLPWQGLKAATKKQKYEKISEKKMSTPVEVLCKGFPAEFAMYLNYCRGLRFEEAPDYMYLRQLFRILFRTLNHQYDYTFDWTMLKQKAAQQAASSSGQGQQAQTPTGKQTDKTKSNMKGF
UniProt Q08345: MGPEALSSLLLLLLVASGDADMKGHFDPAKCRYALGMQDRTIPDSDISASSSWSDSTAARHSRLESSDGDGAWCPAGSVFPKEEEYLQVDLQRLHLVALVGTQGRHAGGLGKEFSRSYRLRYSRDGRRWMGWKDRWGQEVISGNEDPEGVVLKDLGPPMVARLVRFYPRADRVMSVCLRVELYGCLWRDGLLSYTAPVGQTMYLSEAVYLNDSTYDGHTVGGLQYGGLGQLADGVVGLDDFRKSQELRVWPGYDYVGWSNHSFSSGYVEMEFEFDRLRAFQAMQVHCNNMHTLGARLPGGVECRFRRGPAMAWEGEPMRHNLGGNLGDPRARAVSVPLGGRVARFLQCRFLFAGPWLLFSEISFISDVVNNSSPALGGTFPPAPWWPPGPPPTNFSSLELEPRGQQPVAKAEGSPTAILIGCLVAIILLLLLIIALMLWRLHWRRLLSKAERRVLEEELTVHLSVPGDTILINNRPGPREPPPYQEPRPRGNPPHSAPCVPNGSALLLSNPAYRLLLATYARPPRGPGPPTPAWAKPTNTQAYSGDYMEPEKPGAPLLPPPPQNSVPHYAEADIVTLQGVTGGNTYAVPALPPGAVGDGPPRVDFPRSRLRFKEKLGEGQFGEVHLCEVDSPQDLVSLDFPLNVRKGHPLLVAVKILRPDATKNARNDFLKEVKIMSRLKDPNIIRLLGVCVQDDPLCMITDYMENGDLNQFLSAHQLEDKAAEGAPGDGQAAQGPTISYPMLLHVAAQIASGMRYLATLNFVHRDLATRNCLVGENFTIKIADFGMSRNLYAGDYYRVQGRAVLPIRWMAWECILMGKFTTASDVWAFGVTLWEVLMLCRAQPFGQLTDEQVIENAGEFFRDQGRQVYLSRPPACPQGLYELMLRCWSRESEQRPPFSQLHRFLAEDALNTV
UniProt Q92630: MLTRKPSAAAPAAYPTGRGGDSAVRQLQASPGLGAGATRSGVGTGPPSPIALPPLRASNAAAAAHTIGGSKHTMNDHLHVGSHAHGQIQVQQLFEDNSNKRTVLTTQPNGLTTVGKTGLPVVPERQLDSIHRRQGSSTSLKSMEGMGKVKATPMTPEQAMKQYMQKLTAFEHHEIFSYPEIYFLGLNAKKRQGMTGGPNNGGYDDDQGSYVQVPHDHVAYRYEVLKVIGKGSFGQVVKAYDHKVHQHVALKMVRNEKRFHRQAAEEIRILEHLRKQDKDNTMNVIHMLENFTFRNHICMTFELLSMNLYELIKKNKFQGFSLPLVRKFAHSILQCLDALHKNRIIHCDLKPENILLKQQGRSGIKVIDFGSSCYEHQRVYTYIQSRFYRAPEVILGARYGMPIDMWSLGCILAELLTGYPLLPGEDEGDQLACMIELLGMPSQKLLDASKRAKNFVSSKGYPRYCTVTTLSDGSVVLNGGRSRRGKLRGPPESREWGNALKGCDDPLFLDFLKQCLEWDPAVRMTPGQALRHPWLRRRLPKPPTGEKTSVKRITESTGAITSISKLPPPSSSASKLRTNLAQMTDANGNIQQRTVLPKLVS
UniProt P21860, whole entry: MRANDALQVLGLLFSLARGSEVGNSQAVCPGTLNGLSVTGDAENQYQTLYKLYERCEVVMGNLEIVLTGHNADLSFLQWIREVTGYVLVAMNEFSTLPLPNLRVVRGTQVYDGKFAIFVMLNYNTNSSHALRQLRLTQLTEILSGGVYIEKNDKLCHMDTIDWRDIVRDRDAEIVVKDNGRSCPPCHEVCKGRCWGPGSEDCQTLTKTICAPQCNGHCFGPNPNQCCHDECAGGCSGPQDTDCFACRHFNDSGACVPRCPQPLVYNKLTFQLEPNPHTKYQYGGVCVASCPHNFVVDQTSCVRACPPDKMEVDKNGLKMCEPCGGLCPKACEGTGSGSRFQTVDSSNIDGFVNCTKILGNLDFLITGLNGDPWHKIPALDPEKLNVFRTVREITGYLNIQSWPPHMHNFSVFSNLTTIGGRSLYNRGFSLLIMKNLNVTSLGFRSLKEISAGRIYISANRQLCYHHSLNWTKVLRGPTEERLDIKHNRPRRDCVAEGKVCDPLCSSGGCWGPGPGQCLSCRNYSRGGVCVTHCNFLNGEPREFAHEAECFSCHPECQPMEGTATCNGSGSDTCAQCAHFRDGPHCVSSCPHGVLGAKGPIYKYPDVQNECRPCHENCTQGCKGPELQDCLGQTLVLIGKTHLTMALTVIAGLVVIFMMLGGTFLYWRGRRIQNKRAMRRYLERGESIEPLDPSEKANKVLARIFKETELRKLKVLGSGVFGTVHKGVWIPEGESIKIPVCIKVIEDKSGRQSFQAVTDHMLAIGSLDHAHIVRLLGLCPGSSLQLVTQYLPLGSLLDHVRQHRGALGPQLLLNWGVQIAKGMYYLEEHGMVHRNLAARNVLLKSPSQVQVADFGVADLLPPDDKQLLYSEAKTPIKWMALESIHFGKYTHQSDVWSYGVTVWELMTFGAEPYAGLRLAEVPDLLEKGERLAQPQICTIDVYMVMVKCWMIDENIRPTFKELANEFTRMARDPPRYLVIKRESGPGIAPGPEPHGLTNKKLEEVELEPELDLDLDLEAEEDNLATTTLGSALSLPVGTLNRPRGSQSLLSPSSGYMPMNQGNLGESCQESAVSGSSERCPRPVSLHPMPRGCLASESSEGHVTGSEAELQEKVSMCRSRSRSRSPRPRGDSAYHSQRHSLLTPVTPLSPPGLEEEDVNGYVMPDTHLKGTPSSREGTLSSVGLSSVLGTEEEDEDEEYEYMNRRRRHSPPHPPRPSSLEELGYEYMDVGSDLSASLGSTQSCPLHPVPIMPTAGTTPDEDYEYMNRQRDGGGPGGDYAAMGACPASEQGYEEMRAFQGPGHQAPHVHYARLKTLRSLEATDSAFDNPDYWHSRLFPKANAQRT
UniProt Q15303, whole entry R711C: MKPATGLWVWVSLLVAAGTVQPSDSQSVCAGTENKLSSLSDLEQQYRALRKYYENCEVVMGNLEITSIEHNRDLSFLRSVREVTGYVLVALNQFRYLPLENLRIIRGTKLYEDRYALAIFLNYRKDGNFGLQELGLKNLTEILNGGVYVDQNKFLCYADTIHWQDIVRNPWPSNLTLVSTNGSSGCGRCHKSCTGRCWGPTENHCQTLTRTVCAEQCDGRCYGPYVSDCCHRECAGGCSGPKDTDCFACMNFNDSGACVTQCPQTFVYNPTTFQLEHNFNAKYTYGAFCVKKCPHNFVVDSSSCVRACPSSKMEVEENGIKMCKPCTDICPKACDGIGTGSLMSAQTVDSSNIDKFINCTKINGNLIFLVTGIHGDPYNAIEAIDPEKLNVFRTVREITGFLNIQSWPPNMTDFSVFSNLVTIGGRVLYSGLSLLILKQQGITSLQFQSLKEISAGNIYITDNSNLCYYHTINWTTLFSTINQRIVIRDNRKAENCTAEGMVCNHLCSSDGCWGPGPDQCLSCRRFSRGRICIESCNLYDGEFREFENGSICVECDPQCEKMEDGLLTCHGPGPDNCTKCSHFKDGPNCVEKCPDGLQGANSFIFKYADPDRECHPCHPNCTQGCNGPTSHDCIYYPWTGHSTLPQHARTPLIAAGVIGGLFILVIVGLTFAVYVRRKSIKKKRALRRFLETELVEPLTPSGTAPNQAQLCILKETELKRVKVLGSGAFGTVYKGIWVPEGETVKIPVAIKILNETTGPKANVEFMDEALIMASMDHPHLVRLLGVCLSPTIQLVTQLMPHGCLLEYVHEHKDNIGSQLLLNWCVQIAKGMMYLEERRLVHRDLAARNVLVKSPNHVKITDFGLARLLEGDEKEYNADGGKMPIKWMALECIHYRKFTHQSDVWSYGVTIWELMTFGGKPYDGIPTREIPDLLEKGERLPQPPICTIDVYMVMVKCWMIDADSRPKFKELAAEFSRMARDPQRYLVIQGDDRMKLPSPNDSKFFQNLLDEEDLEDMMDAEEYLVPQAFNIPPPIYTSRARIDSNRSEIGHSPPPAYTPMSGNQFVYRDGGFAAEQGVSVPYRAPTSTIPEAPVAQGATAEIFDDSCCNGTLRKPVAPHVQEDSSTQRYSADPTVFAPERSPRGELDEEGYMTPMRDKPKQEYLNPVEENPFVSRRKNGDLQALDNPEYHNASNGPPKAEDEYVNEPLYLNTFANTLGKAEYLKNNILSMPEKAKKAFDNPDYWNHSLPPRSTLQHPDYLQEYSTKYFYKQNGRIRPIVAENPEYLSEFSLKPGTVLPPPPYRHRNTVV
UniProt O75460: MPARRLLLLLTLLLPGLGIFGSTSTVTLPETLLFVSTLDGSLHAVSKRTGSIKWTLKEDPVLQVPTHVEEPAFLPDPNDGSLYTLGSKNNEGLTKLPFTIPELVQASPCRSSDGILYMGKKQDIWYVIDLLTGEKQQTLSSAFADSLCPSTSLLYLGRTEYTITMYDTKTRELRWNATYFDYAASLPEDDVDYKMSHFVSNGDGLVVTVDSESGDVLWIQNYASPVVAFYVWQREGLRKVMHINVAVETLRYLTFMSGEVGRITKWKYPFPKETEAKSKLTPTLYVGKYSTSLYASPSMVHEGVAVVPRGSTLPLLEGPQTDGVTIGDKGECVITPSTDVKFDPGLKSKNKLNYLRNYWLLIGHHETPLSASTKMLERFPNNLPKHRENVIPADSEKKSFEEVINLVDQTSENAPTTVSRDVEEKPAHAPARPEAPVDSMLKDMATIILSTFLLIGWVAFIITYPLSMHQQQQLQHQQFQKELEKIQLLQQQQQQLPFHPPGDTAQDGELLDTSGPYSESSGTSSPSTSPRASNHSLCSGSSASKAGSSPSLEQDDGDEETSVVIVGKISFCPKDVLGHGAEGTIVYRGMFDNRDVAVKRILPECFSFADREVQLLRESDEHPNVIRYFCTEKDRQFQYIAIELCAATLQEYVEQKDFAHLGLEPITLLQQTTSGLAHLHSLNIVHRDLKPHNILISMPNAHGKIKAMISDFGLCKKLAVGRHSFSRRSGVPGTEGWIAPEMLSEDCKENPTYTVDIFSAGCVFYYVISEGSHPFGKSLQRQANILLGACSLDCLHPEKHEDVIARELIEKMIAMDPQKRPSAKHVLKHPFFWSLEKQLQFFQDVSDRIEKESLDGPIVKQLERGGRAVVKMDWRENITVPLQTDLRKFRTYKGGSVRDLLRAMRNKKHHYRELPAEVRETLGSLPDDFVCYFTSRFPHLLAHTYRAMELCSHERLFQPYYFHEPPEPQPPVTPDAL
UniProt P11362, whole entry, looked up: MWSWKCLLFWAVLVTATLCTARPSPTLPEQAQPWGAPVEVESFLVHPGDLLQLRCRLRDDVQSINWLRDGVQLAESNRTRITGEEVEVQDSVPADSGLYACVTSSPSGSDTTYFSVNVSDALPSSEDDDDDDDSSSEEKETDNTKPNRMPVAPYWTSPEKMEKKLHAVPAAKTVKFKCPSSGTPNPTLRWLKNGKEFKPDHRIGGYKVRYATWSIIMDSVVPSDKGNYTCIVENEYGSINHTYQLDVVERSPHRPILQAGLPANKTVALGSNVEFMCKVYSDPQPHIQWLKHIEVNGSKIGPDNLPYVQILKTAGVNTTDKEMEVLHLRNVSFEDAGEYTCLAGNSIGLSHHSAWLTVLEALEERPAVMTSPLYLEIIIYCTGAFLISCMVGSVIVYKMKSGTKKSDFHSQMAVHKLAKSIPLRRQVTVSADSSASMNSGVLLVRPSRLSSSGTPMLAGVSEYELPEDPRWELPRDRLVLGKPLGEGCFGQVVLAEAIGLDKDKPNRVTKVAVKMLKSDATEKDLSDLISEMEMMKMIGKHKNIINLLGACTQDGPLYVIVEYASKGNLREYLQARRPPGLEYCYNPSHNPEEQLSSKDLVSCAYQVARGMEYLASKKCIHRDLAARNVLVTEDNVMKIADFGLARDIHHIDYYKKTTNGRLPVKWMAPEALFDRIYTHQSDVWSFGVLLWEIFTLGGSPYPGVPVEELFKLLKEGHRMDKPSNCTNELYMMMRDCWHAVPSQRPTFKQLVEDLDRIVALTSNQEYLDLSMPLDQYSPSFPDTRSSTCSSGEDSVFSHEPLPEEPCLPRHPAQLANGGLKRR

Assays:
Experiment in all cases: number of time points (of 5) at which kinase-Nluc abundance scored as decreased, DMSO-normalised (count); higher = more persistent destabilization
Conditions in all cases: K562; 2-18 h
[1] = biological target: CSNK1A1 (UniProt P48729)
[2] = biological target: CSNK1D (UniProt P48730)
[3] = biological target: DDR1 (UniProt Q08345)
[4] = biological target: DYRK1B (UniProt Q9Y463)
[5] = biological target: DYRK2 (UniProt Q92630)
[6] = biological target: EGFR (UniProt P00533)
[7] = biological target: EGFR_G719S (UniProt P00533)
[8] = biological target: EGFR_G719S_T790M (UniProt P00533)
[9] = biological target: EGFR_L718V (UniProt P00533)
[10] = biological target: EGFR_L858R (UniProt P00533)
[11] = biological target: EGFR_L861Q (UniProt P00533)
[12] = biological target: EGFR_T790M (UniProt P00533)
[13] = biological target: EPHA2 (UniProt P29317)
[14] = biological target: ERBB3 (UniProt P21860)
[15] = biological target: ERBB4_R711C (clone: ERBB4_mut) (UniProt Q15303)
[16] = biological target: ERN1 (UniProt O75460)
[17] = biological target: FGFR1 (UniProt P11362)
[18] = biological target: FGFR2 (UniProt P21802)
[19] = biological target: FGFR3 (UniProt P22607)
[20] = biological target: FGR (UniProt P09769)

Compound	number of time points [1]	number of time points [2]	number of time points [3]	number of time points [4]	number of time points [5]	number of time points [6]	number of time points [7]	number of time points [8]	number of time points [9]	number of time points [10]	number of time points [11]	number of time points [12]	number of time points [13]	number of time points [14]	number of time points [15]	number of time points [16]	number of time points [17]	number of time points [18]	number of time points [19]	number of time points [20]
Nc1nc(N)c2nc(-c3cccc(O)c3)c(-c3cccc(O)c3)nc2n1 (10 µM)	0	0	0	0	0	0	0	0	0	0	0	0	0	0	0	0	0	0	0	0
COc1cc2c(cc1Nc1ncc(C(N)=O)c(Nc3c(F)cccc3C(F)(F)F)n1)CN(C)CC2 (2.5 µM)	0	0	0	0	0	0	0	0	0	0	0	0	0	0	0	0	0	0	0	0
COC(=O)[C@H](CCSC)NC(=O)c1ccc(NC[C@@H](N)CS)cc1-c1ccccc1 [FTI-277 (hydrochloride)] (10 µM)	0	0	0	0	0	0	0	0	0	0	0	0	0	0	0	0	0	0	0	0
CC1=C(C(=O)Nc2cc3cn[nH]c3cc2F)C(c2ccc(C(F)(F)F)cc2)CC(=O)N1 (stereo not given) (10 µM)	0	0	0	0	0	0	0	0	0	0	0	0	0	0	0	0	0	0	0	0
CCC(=O)Nc1cccc(Oc2nc(Nc3ccc(N4CCN(C)CC4)cc3OC)ncc2Cl)c1 (10 µM)	0	0	0	0	0	0	0	0	0	0	0	0	0	0	0	0	0	0	0	0
Cc1cc(O)c2c(c1)C(=O)c1cccc(O)c1C2=O [Chrysophanol] (2 µM)	0	0	0	0	0	0	0	0	0	0	0	0	0	0	0	0	0	0	0	0
O=C1CC[C@H](NC(=O)Cc2ccccc2)C(=O)N1 [Antineoplaston A10] (10 µM)	0	0	0	0	0	0	0	0	0	0	0	0	0	0	0	0	0	0	0	0
COc1cc(F)ccc1-c1ncnc(Nc2cccc(C[S@](C)(=N)=O)c2)n1 [Atuveciclib] (2.5 µM)	0	0	0	0	4	0	2	2	0	1	3	2	0	3	3	2	0	2	0	0
O=C(O)[C@H]1O[C@@H](Oc2cc3oc(-c4ccc(O)cc4)cc(=O)c3c(O)c2O)[C@H](O)[C@@H](O)[C@@H]1O [Scutellarin] (10 µM)	0	0	0	0	0	0	0	0	0	0	0	0	0	0	0	0	0	0	0	0
N#Cc1cnc2c(Cl)cc(NCc3cn(CCN4CCCCCC4)nn3)cc2c1Nc1ccc(F)c(Cl)c1 [Cot inhibitor-1] (10 µM)	0	1	0	0	0	0	0	0	0	0	1	0	0	0	0	0	0	0	0	0
Cc1nn(C)cc1-c1nc2c(N3CCN(Cc4ccc(Cl)cc4)CC3)c(Cl)cnc2[nH]1 (10 µM)	0	0	0	0	0	0	0	0	0	0	0	0	0	0	0	0	0	0	0	0
C=CC(=O)N1CCC[C@@H](n2nc(-c3ccc(Oc4ccccc4)cc3)c3c(N)n[nH]c(=O)c32)C1 [BTK inhibitor 17] (10 µM)	0	0	0	0	2	0	0	0	0	0	0	0	0	0	0	0	0	0	0	0
N#Cc1ccc(-c2cnc3ccc(-c4ccc(C(=O)N5CCOCC5)cc4)cn23)cc1 (10 µM)	0	0	0	0	0	0	0	0	0	0	0	0	0	0	0	0	0	0	0	0
COc1ccc(Nc2ncc(C(F)(F)F)c(NC3CC3)n2)cc1OC (10 µM)	0	0	1	0	4	0	0	0	0	0	0	0	0	2	2	0	0	3	1	0
CC(C)n1c([C@H](C)Nc2ncnc(N)c2C#N)cc2cccc(-c3ccc(=O)n(C)c3)c2c1=O (10 µM)	0	0	1	0	1	0	0	0	0	0	0	0	0	0	0	0	0	0	0	0
COc1cc2ncnc(Oc3ccc(CC(=O)Nc4cnn(C(C)C)c4)cc3)c2cc1OC (10 µM)	0	0	0	0	3	0	0	0	0	0	0	0	0	0	0	0	0	0	0	0
Cn1cc(-c2cc(Oc3cc(F)c(NC(=O)C4(C(=O)Nc5ccccc5)CC4)cc3F)ccn2)cn1 (2.5 µM)	0	0	0	0	1	0	0	0	0	0	0	0	0	0	0	0	0	0	0	0

Compound	number of time points [1]	number of time points [2]	number of time points [3]	number of time points [4]	number of time points [5]	number of time points [6]	number of time points [7]	number of time points [8]	number of time points [9]	number of time points [10]	number of time points [11]	number of time points [12]	number of time points [13]	number of time points [14]	number of time points [15]	number of time points [16]	number of time points [17]	number of time points [18]	number of time points [19]	number of time points [20]
COc1cc(N2CCOCC2)ccc1Nc1ncc(F)c(Nc2ccccc2NS(C)(=O)=O)n1 (10 µM)	0	0	0	0	0	0	0	0	0	0	0	0	0	0	0	0	0	0	0	0
CCn1c(-c2nonc2N)nc2c(C#CC(C)(C)O)ncc(OC[C@H]3CCCNC3)c21 (10 µM)	1	0	0	0	0	0	0	0	0	0	0	0	0	0	0	0	0	0	0	0
Cn1c(=O)c2c(nc(S(C)(=O)=O)n2C)n(CC#Cc2cccc(O)c2)c1=O (2.5 µM)	0	0	1	0	0	0	0	0	0	0	0	0	0	0	0	0	0	0	0	0
COc1ccc2c(Oc3ccc4c(C(=O)Nc5ccccc5N)cccc4c3)ccnc2c1 [Chiauranib] (10 µM)	0	3	1	0	2	0	0	0	0	0	0	0	0	0	0	0	0	1	0	0
O=C1OC(/C=C/c2ccccc2)=NC/1=C\c1cccnc1 (10 µM)	0	0	0	0	0	0	0	0	0	0	0	0	0	0	0	0	0	0	0	0
O=C(NCCO)c1cc(C(=O)NCCO)cc(C(=O)NCCO)c1 (10 µM)	0	0	0	0	0	0	0	0	0	0	0	0	0	0	0	0	0	0	0	0
Fc1ccc2[nH]ccc2c1-c1nc(N2CCOCC2)c2sc(CN3CCN(CC4CC4)CC3)cc2n1 (10 µM)	0	0	0	0	0	0	0	0	0	0	0	0	0	0	0	0	0	0	0	0
CC(Sc1nc2c(cnn2-c2cccc(Cl)c2)c(=O)[nH]1)C(N)=O (stereo not given) (10 µM)	0	0	0	0	0	0	0	0	0	0	0	0	0	0	0	0	0	0	0	0
CC(C)=CCC/C(C)=C/CC/C(C)=C/C=C/C(C)=C/C(=O)O [Peretinoin] (10 µM)	0	0	0	0	0	0	0	0	0	0	0	0	0	0	0	0	0	0	0	0
O=C1Nc2ccc(CN3C(=O)CSC3=O)cc2/C1=C/c1cc(CN2CCOCC2)c[nH]1 (10 µM)	0	0	0	0	0	0	0	0	0	0	0	0	0	0	0	0	0	0	0	0
COCCOCCc1c(C)c2cc(OC)c(O)c(C=O)c2oc1=O (10 µM)	0	0	0	0	0	0	0	0	0	0	0	0	0	0	0	0	0	0	0	0
Cc1cc(-n2c(=O)ccc3c[nH]c4nccc-4c32)ccc1F (10 µM)	0	0	0	0	1	0	0	0	0	0	0	0	0	0	0	0	0	0	0	0
CC(O)(C#Cc1ccc2c(c1)N(c1nc(N)ncc1Cl)CC2)c1nccs1 (stereo not given) (2.5 µM)	0	0	0	0	0	0	0	0	0	0	0	0	0	0	0	0	0	0	0	0
c1ccc(Cn2c(-c3ccc(OC[C@H](C4CCNCC4)n4c(-c5ccccc5)nc5ccccc54)cc3)nc3ccccc32)cc1 [Deltarasin] (2.5 µM)	0	0	0	0	0	0	0	0	0	0	0	0	0	0	0	0	0	0	0	0
C[C@H]1O[C@@H](O[C@H]2CC[C@@]3(C)[C@@H](CC[C@]4(C)[C@@H]3C=C[C@]35OC[C@@]6(CCC(C)(C)C[C@H]63)[C@H](O)C[C@]54C)[C@]2(C)CO)[C@H](O)[C@@H](O[C@@H]2O[C@H](CO)[C@@H](O)[C@H](O)[C@H]2O)[C@H]1O [Saikosaponin D] (2.5 µM)	0	0	0	0	0	0	0	0	0	0	0	0	0	0	1	0	0	3	0	0
COc1cc(N2CCC(N3CCN(C)CC3)CC2)ccc1Nc1ncc(Cl)c(-c2c[nH]c3ccccc23)n1 (2.5 µM)	0	0	0	0	0	0	0	0	0	0	0	0	0	0	0	0	0	0	0	0

Quoted from the listing:
Cn1c(=O)c2c(nc(S(C)(=O)=O)n2C)n(CC#Cc2cccc(O)c2)c1=O (2.5 µM) – number of time points [9]: 0
COc1cc(N2CCC(N3CCN(C)CC3)CC2)ccc1Nc1ncc(Cl)c(-c2c[nH]c3ccccc23)n1 (2.5 µM) – number of time points [6]: 0

Exported in CSV form: part of the list above.
Compound,number of time points [1],number of time points [2],number of time points [3],number of time points [4],number of time points [5],number of time points [6],number of time points [7],number of time points [8],number of time points [9],number of time points [10],number of time points [11],number of time points [12],number of time points [13],number of time points [14],number of time points [15],number of time points [16],number of time points [17],number of time points [18],number of time points [19],number of time points [20]
COc1ccc2c(Oc3ccc4c(C(=O)Nc5ccccc5N)cccc4c3)ccnc2c1 [Chiauranib] (10 µM),0,3,1,0,2,0,0,0,0,0,0,0,0,0,0,0,0,1,0,0
O=C1OC(/C=C/c2ccccc2)=NC/1=C\c1cccnc1 (10 µM),0,0,0,0,0,0,0,0,0,0,0,0,0,0,0,0,0,0,0,0
